Test results reported in patent US20090069231A1.
These are yes or no findings as the source states them, for the method shown. Binding seen in cells or lysates may run through a third protein. Some binding calls cover weakened binding; strength is not graded here.

Amino acid sequences for entries named in this document (tags omitted). A change or cut given only in a name is not applied to a line headed by its entry. Chains listed by the source or under a name are the forms on record and can include a tag or linker. Residues count along the entry.
Recombinant VEGF (P15692, form named): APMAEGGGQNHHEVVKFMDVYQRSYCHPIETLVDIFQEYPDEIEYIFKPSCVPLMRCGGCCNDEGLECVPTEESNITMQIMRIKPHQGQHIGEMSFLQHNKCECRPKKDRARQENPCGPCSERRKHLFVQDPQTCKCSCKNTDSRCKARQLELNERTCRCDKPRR
UniProt Q9UBP4, residues 22-350: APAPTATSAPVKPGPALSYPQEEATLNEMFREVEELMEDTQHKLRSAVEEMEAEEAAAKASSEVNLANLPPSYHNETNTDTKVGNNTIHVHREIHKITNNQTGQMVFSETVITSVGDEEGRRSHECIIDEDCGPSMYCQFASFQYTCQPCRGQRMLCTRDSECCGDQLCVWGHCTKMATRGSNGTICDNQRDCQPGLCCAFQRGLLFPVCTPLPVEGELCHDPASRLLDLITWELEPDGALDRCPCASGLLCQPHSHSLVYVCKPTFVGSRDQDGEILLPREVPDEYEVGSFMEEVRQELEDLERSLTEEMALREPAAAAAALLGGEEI

Tests used:
Recombinant VEGF (human) [1] = target: Recombinant VEGF (human) (UniProt P15692); assay: functional ELISA (DKK3-coated wells, VEGF added, anti-VEGF detection) and co-immunoprecipitation of I-VEGF with DKK3 captured on anti-DKK3 beads
Recombinant VEGF (human) [2] = target: Recombinant VEGF (human) (UniProt P15692); assay: co-immunoprecipitation of I-VEGF with DKK3 captured on anti-DKK3 antibody beads, scintillation counting (N=1)

Substance: Human recombinant DKK3 (Dickkopf 3) (from UniProt Q9UBP4 22-350) (ligand)
- binding (Recombinant VEGF (human) [1]): binds
- binding (Recombinant VEGF (human) [2]): binds
